{
  "sequences": {"note": "Chains of the proteins cited; added tags and fusions are not shown. Lines headed by an entry give the natural chain unless they say otherwise; changes in a name come on top. Residues count along the entry.", "UniProt P08069, residues 31-1367": "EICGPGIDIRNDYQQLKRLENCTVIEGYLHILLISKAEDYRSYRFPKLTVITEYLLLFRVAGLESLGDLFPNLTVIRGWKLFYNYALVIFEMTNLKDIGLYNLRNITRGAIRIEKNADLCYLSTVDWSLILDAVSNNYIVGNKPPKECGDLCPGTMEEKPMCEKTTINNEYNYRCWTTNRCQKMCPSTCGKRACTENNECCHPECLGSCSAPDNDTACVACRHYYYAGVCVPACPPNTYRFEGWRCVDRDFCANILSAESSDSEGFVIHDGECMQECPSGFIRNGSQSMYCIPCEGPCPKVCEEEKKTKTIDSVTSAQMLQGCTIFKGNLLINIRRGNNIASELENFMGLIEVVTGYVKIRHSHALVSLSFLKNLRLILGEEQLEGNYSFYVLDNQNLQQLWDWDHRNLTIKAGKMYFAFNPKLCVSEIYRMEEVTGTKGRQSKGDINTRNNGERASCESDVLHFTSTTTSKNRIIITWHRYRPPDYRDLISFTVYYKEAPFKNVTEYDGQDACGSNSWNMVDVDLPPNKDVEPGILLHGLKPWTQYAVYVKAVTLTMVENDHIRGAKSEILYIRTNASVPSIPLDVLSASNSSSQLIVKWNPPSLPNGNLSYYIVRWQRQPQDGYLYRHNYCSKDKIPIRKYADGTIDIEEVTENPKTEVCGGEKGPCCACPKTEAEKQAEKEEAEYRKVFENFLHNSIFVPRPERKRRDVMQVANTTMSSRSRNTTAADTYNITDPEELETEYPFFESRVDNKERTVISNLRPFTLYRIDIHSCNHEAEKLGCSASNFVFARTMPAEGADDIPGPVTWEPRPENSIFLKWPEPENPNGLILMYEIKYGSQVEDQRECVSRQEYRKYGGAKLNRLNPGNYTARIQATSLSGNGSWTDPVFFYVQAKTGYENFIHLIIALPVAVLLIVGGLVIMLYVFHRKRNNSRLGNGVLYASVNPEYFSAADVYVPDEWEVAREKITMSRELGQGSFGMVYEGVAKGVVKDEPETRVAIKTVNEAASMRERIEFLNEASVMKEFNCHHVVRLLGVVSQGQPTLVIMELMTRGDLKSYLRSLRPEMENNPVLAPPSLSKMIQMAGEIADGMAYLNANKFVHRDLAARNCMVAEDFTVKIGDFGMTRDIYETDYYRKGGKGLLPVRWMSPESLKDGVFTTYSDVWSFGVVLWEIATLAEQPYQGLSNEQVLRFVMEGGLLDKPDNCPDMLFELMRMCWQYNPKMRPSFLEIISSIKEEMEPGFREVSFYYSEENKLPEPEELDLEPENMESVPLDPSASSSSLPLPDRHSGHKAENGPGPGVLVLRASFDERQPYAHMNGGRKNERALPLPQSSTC"},
  "source": "patent US20080221014A1",
  "molecular_target": "IGF1R (insulin-like growth factor 1 receptor), endogenous in glioma cells (human) (UniProt P08069)",
  "test": "co-immunoprecipitation: anti-PIK3R3 IP from glioma cell lysates, western blot with anti-IGF1R beta antibody",
  "note": "No constants are given. Whether binding was seen depends on the method and setting. In cells and extracts the contact can be indirect. Some binding calls cover weakened binding; strength is not graded here.",
  "data": [
    {"substance": "PIK3R3 polypeptide (regulatory subunit of PI3-kinase), endogenous in glioma cells (from UniProt Q92569 1-461)", "values": [
      {"measurement": "binding", "value": "binds"}
    ]}
  ]
}
